# Screening data

Source: PubChem BioAssay AID1159506 (NCATS, 2015).

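Luminescence from an EWS-FLI1 target-promoter (NR0B1) reporter, set against a CMV-promoter reporter, two days after silencing single genes in TC32 Ewing sarcoma cells.
Each siRNA was applied at 20 nM.
A z-score of the log NR0B1-over-CMV signal, less the median of siRNAs with the same seed; more negative means a stronger specific loss of the NR0B1 reporter.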

This is part of the screen; most of the strongest results are not listed here.
Sequences are the guide (antisense) strand, without overhang.

Sequence,gene,seed-corrected z-score
AUACUUGUAGCUGGUACCC,BABAM1,1.036
UUCGCUUGUAGGAAACUGG,SPG7,-0.3293
UGUCGAUGCAGGGAAAUCC,GALNT4,0.4389
UAUUUUUCUAGGUAAUCCC,NNMT,-0.4012
UGUGCUUAUAGACGAAUCC,HMP19,-0.3515
UACGAUUAAAAGACUUCCC,ZNF780B,-0.02779
UACGGCACCCUCAUUAGCG,LOC729461,0.2662
UGCUGCACACUAGCUUUGG,FAM226B,0.3252
AAAUCGACGAAGGACAAGC,OR8D1,0.2912
UAUUUCAUCACCGAGUUCU,S1PR5,-0.806
UAACUCAUUAAUGAGGUCC,AJUBA,0.3433
UUACCUUCUUGUACCGCCG,TBC1D10C,0.125
UUUCGGUUUUUAGUCCACC,ART3,0.07834
UUGUUGAGAAUAGACGCGG,REC8,0.3126
UUCUCUAAAGGGAUGAUUC,CYTH1,-0.3597
AGGGUGAAGAUAUAGAACA,OR2A1,-1.345
UGUAUCCCAAAAGUAAAUC,LOC643373,0.3308
UUUGGAUAAUUGCAGAUAC,KCNH7,-0.003752
UUCUAUGUUAAAGAGACCC,GPRASP2,0.1645
UACAUUAUGUCAGACAUGC,CYP4A11,0.03471
AAAUCUAUCAUAUGCCUGU,RBM33,0.9327
UGGAUGACAAUGAACAUUA,OR6K6,0.1968
UUCCAUGUCGAACACGUCC,KLHDC8A,-0.3934
UUUCCAACAAUGCCUGAGC,VBP1,-0.4083
UCCUUUCCUUGGUAGCUGC,SH3BP1,-1.172
AAACAAGCAAGUACUGGGC,LRIG1,0.5477
UUUAAGGUGAGGAACAUGU,SLC6A1,-0.302
UCUCAGGUUGCAUGACUGG,IFNL2,0.5023
UAAAUAACAACUUCCCGUG,MORN1,0.4426
UACUGGUAGAUUUCCAGGC,TBC1D2,0.7532
AACGUGAAGGUAGUUAUCC,TBC1D3G,-0.3559
UACGAUACCUGGUCAGUUU,AMMECR1,0.3518
UCUAUUACUUCAAUUUUGG,GTF2E2,0.2098
ACAUGUAACAUCCAAGAGU,COMMD9,1.329
AACAGGAACAUGUAGUGGG,EPHX3,-0.4396
UUUUCUCCUAAGUUUGUCA,CALM1,0.8739
UGAAGUAGAAGUCACGUUC,MAPRE3,1.189
UUUGAGGAUUUGAUGGGCC,C19orf81,1.19
AAAGGUAUAACAAGCAUCU,KRT38,0.05074
UUUGCAUUAUCUCUUGUAC,TFPI,-0.911
AAAGGUUACUCUCAGGUGG,EPS8L3,0.8851
UUCGGCAACAGCAAAUUGC,RHBDD1,-0.5473
AAUAGGAAGAUCUCUGGCC,FOXI3,-1.061
UUUGGAAAUCUGAAGCUUG,VSTM2A,0.3958
UUCAGACGCACAUUGGUUG,CHRNA1,-0.4366
UUCGAUUCUGCACCGUUCC,DSP,1.361
UUGUUGAGAAAAUAGUGCC,KMT5B,0.6974
AAACUCGUAGUCUCCAUCC,STK4,-0.4034
UUAACAGCUACUACGUGUU,LOC729506,0.4963
UGGUGGAACAUAGAAGAGU,DEFB135,-1.907
UCUAGAAUGAUCCGGAUUC,PIAS1,-0.6537
UGUCUCCUAAAUGUCCUUC,PLPPR2,0.1678
UUGCGGAUAUAGAUGACCC,GPR132,-0.9825
UUUCGGCCUUCCAAUGUCC,ANKRD13A,-0.2244
CCUGGAAGCUGAUUUCGCC,CALML5,0.09045
UCCCUAUCUCUGGAAGUCC,CBX7,0.3855
UUUAAAACCAGUUAUUCUA,LOC730081,0.7346
UGUGAGUCAAAGCUUCUCU,ZSCAN5B,0.4461
UUUGCAAUAUCGCUGAAUC,RAB23,-1.077
AAUAGAGGCAUGUCAAUUU,PRORSD1P,0.936
UACAAAUAAAUCGUCAUGC,SIX3,0.3061
UCUUGAACUAGAAAGCUGU,RPAIN,-0.6218
UCACUUCCAAUAUUUCGUG,ST8SIA5,-0.6689
UUAGAGACACCGAUCUUUG,RPL29P30,-0.1259
AAAGGUAAGAUUUGGGCCC,LIMD1,-0.6536
UUAUUCACAGUCAUCUUGG,POLDIP3,-0.08716
AAAGCACCACGGUCAGAUG,TMEM258,1.397
UGAGUUGCAGAUGAGGAGG,MED25,1.368
UGCGUUGUCGCUUAAGUCC,RANGAP1,-0.8883
AAACACUCUCUGACGAUGC,BEND5,0.3788
UAGACGGUCAUUUAGGUUC,KRT20,-0.4864
UCAGGUGUAGGUUCUGAGA,LENG9,-0.6996
AGCGAAACCAGUUCGGUCU,CDKN2C,-0.536
UGAAUGACCAUGCCGAUCC,SPIN2B,-0.01648
UUUGUCUGCACCAUGAACC,NYNRIN,-0.1996